For assay [1], the target named is ANXUR 1 (ANX1) in the BD vector (Arabidopsis) (UniProt Q9SR05). The experiment in a line: two-hybrid; directed test: EBP1 in the AD vector (pGADT7), FER-KD or CrRLK1L members in the BD vector (pGBKT7), yeast strain AH109; SD/-Ade/-Leu/-His medium with 20 mM 3-AT.
Assay [2] deals with AT5G24010 in the BD vector (Arabidopsis) (UniProt Q9FLW0). The assay is described as above.
The target of assay [3] is CURVY 1 (CVY1) in the BD vector (Arabidopsis). The description is as above.
The target in assay [4] is HERCULES2 (HERK2)-nVenus (Arabidopsis). The experiment in a line: split reporter; BiFC of cCFP and nVenus fusions in Arabidopsis protoplasts, 16 hours at 23°C in the dark; FM4-64 marks the plasma membrane.

The chains behind the UniProt entries cited, without tags or fusion partners. Where a name states a change or a piece, a line headed by the entry shows the natural chain unless it says otherwise.
UniProt Q9SR05: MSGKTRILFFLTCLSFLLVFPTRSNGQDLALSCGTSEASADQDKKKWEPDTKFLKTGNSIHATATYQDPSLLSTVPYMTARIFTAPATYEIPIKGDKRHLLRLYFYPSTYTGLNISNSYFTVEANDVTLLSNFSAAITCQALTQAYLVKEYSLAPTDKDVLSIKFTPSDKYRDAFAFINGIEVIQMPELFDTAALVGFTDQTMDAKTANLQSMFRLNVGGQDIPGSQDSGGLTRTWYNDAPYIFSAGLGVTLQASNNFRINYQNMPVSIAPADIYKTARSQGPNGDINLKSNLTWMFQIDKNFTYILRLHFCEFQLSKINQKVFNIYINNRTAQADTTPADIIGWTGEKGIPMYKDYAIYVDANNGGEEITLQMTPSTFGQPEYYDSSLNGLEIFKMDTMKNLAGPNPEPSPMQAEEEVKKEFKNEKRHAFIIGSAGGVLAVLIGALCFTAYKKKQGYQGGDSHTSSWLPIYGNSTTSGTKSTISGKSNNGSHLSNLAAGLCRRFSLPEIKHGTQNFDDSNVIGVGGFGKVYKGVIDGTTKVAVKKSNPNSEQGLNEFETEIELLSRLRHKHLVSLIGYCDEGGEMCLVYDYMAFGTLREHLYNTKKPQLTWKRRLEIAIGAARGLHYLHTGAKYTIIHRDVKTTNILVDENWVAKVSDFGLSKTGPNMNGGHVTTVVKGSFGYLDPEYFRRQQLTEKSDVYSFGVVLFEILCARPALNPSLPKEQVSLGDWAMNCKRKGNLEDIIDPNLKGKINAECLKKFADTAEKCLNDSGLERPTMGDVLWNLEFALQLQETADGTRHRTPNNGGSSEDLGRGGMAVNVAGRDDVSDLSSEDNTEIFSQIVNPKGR
UniProt Q9FLW0: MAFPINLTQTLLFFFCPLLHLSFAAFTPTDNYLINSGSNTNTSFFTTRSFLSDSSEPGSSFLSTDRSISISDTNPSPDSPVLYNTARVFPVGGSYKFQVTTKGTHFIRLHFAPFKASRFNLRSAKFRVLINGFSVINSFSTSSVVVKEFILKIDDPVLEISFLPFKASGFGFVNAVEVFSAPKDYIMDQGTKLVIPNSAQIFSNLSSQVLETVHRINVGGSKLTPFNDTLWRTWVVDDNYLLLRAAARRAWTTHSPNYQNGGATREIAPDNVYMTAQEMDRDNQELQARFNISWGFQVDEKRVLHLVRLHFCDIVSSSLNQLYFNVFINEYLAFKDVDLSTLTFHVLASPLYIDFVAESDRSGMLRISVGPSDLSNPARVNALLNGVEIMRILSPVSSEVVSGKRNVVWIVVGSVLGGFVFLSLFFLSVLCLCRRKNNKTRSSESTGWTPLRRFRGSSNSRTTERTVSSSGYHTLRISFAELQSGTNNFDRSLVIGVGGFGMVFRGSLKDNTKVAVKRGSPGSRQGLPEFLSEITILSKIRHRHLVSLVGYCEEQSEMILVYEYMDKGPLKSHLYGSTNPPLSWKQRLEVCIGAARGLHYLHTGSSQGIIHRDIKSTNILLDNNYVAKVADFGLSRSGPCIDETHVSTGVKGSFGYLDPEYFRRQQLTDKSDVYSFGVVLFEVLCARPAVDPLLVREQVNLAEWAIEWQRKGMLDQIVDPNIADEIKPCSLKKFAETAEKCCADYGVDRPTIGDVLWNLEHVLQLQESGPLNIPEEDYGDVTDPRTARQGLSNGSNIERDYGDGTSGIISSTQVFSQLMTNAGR

Results are given in words; binding and its absence hold for the method and conditions named. For some of these results: Binding can be weak; no strength is given. Where a sequence is shown, tags or fusion partners need not be part of it. For some of these results: In cells and extracts the contact can be indirect.

B1: full-length EBP1 fused to the GAL4 DNA-activating domain (protein, UniProt Q96327-3 1-401)
chain: MSSDDERDEKELSLTSPEVVTKYKSAAEIVNKALQVVLAECKPKAKIVDICEKGDSFIKEQTASMYKNSKKKIERGVAFPTCISVNNTVGHFSPLASDESVLEDGDMVKIDMGCHIDGFIALVGHTHVLQEGPLSGRKADVIAAANTAADVALRLVRPGKKNTDVTEAIQKVAAAYDCKIVEGVLSHQLKQHVIDGNKVVLSVSSPETTVDEVEFEENEVYAIDIVASTGDGKPKLLDEKQTTIYKKDESVNYQLKMKASRFIISEIKQNFPRMPFTARSLEEKRARLGLVECVNHGHLQPYPVLYEKPGSCRFGFLPGDFVAQIKFTVLLMPNGSDRITSHTLQELPKKTIEDPEIKGWLALGIKKKKGGGKKKKAQKAGEKGEASTEAEPMDASSNAQE
For B1, the binding entry in assay [1], in assay [2] and in assay [3] was “binds” in each case.

B2: EBP1–C-terminal cyan fluorescent protein (cCFP) (protein, UniProt Q96327-3 1-401)
chain: MSSDDERDEKELSLTSPEVVTKYKSAAEIVNKALQVVLAECKPKAKIVDICEKGDSFIKEQTASMYKNSKKKIERGVAFPTCISVNNTVGHFSPLASDESVLEDGDMVKIDMGCHIDGFIALVGHTHVLQEGPLSGRKADVIAAANTAADVALRLVRPGKKNTDVTEAIQKVAAAYDCKIVEGVLSHQLKQHVIDGNKVVLSVSSPETTVDEVEFEENEVYAIDIVASTGDGKPKLLDEKQTTIYKKDESVNYQLKMKASRFIISEIKQNFPRMPFTARSLEEKRARLGLVECVNHGHLQPYPVLYEKPGSCRFGFLPGDFVAQIKFTVLLMPNGSDRITSHTLQELPKKTIEDPEIKGWLALGIKKKKGGGKKKKAQKAGEKGEASTEAEPMDASSNAQE
For B2, the binding entry in assay [4] is “no binding”.

The record behind these values is article PMC6195255, “EBP1 nuclear accumulation negatively feeds back on FERONIA-mediated RALF1 signaling”.
